Test results: article PMC4847014
Results are given in words; binding and its absence hold for the method and conditions named. In cells and extracts the contact can be indirect. Some binding calls cover weakened binding; strength is not graded here. One block for each substance: values may come before it.

Chains of the proteins cited; added tags and fusions are not shown.
UniProt Q04206: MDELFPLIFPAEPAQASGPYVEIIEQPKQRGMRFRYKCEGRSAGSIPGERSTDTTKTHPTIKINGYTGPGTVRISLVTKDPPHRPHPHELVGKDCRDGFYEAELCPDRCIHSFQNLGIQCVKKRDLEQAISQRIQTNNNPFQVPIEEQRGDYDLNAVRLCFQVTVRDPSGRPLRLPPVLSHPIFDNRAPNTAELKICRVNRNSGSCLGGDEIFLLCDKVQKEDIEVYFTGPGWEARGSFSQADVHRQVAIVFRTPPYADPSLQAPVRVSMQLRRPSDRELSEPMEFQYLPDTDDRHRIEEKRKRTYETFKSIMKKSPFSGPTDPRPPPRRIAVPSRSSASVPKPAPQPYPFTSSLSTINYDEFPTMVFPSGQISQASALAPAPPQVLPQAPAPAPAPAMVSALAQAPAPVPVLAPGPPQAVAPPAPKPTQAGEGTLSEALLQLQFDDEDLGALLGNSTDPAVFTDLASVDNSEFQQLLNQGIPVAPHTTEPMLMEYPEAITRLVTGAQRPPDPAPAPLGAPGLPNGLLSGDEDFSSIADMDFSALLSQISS
UniProt O94916: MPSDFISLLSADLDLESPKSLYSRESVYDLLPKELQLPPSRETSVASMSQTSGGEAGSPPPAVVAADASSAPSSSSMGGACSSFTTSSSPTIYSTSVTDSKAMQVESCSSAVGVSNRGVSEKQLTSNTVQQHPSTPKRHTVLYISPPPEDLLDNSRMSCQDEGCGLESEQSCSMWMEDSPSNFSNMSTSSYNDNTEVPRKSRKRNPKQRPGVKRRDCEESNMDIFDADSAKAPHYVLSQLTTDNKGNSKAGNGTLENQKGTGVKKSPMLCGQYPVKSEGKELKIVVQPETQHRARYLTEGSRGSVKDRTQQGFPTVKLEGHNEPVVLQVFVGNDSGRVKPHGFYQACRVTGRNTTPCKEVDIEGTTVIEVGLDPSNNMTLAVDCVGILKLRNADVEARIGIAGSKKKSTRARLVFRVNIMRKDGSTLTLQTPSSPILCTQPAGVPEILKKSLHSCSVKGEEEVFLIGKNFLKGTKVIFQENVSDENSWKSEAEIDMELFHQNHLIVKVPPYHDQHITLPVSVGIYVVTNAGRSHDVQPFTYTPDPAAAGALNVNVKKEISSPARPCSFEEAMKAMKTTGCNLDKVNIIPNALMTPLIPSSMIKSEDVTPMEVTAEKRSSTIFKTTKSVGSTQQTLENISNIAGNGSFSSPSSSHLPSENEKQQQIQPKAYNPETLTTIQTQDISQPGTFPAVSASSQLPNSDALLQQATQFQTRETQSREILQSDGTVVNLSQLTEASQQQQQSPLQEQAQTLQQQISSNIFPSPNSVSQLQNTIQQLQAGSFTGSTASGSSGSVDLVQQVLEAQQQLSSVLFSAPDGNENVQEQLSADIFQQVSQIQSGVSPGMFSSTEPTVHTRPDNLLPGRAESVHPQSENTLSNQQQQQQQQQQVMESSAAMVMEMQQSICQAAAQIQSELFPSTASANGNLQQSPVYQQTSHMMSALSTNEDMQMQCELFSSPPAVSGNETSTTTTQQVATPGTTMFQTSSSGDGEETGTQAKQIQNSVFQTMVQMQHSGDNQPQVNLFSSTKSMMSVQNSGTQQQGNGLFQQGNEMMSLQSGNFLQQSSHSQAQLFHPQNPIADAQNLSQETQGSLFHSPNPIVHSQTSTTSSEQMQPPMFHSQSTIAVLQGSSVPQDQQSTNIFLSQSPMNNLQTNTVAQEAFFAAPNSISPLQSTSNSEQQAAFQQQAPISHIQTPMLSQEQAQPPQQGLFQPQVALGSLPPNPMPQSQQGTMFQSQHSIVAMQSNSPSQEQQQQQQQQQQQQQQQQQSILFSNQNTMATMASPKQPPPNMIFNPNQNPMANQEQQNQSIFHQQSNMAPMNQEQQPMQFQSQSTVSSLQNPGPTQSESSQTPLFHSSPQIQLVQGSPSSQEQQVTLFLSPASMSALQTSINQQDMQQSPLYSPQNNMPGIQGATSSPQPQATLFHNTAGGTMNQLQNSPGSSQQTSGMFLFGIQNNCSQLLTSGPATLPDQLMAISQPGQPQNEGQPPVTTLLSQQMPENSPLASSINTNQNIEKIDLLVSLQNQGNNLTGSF
UniProt Q04207: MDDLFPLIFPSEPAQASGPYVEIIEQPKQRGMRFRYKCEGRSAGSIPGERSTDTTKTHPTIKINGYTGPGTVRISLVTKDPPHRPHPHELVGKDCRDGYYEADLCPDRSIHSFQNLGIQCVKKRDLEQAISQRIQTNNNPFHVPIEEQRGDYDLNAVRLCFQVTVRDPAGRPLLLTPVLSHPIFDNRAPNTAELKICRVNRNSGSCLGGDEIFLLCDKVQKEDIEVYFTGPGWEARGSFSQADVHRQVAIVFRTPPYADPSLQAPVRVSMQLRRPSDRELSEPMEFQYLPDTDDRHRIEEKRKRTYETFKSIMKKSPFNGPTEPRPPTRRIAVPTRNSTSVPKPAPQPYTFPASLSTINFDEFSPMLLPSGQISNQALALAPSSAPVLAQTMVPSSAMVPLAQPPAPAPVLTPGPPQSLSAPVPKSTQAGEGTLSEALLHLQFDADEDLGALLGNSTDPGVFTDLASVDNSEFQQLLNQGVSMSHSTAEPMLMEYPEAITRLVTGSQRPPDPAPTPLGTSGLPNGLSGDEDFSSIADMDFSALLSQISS
UniProt Q9WV30: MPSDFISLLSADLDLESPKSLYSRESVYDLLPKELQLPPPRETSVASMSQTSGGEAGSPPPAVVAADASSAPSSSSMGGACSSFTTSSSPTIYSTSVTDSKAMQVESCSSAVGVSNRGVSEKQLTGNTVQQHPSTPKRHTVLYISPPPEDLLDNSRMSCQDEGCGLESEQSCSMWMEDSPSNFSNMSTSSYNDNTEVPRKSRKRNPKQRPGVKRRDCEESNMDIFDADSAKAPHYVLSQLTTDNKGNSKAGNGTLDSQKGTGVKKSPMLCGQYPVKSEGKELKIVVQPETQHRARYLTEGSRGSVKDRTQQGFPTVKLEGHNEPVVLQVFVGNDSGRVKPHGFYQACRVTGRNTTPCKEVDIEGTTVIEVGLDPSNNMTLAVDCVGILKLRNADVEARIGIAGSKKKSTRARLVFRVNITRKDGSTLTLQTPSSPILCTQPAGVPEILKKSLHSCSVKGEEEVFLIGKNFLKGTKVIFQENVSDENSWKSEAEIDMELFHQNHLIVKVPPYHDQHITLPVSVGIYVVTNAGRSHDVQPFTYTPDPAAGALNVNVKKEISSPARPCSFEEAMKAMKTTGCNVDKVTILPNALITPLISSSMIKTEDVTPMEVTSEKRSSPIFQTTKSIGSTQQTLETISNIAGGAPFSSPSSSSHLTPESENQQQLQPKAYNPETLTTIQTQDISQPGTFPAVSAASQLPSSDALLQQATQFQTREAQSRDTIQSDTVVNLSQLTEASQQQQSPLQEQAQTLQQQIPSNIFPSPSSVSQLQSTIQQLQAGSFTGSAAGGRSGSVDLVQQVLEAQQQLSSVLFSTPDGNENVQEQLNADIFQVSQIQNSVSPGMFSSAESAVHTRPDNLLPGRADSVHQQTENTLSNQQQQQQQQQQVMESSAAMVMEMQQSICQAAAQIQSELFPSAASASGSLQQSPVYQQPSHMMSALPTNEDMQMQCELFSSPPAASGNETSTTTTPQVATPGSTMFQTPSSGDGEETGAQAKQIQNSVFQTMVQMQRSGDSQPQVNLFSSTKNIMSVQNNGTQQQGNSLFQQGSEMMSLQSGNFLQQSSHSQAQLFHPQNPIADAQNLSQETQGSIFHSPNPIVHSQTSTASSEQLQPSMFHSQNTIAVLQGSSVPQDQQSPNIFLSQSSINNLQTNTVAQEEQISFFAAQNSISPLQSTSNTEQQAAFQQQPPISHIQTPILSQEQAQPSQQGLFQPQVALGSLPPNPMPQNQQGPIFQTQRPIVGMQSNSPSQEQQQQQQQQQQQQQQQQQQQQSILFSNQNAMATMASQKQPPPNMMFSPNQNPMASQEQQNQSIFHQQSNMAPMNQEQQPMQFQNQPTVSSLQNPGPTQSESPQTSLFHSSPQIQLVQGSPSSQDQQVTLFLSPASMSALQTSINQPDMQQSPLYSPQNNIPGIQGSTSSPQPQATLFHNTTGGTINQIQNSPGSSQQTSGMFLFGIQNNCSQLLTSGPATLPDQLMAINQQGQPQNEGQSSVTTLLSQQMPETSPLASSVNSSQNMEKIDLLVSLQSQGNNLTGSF

What was measured:
Myc-p65 = Myc-p65 (UniProt Q04206); assay: co-IP; COS-7 cells co-transfected with Myc-p65 and Flag-TonEBP; lysates immunoprecipitated with anti-Myc IgG or anti-Flag IgG, immunoblotted for TonEBP, Myc or Flag
Flag-TonEBP (human) = Flag-TonEBP (human) (UniProt O94916); assay: as above
[1] = biological target: p65 subunit of NFκB, endogenous in MEF cells (mouse (endogenous in MEF)) (UniProt Q04207); assay: co-IP; MEF cell lysates (TonEBP+/+ or TonEBPΔ/Δ) immunoprecipitated with anti-p65 IgG or anti-TonEBP serum, immunoblotted for p300, TonEBP and p65; cells treated with vehicle or LPS (100 ng/ml), without or with cerulenin (10 μM)
[2] = biological target: Tonicity-responsive enhancer binding protein (TonEBP), endogenous in MEF cells (mouse (endogenous in MEF)) (UniProt Q9WV30); assay: as above

binding (Myc-p65): binds
Substance: Flag-TonEBP (from UniProt O94916 1-1531)

binding (Flag-TonEBP (human)): binds
Substance: Myc-p65 (from UniProt Q04206 1-551)

binding [1]: binds
Substance: Tonicity-responsive enhancer binding protein (TonEBP), endogenous in MEF cells (from UniProt Q9WV30 1-1534)

binding [2]: binds
Substance: p65 subunit of NFκB, endogenous in MEF cells (from UniProt Q04207 1-549)
